Data as given in PubChem BioAssay AID1117319 (Southern Research Institute, 2015).
Out of some 260,000 compounds screened, about 1,500 (0.58%) were called active. The shares of active, inactive and inconclusive entries below differ from those in the screen.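 Rule for the calls: active = inhibition above a set limit at one or more doses, reproduced on every date tested; inconclusive = results disagree between test dates, or hit never tested in dose response; inactive = the rest.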

Protein sequences, listed by entry. Tags and fused reporters are not part of them. Lines headed by an entry give the natural chain unless they say otherwise; changes in a name come on top.
UniProt P69720: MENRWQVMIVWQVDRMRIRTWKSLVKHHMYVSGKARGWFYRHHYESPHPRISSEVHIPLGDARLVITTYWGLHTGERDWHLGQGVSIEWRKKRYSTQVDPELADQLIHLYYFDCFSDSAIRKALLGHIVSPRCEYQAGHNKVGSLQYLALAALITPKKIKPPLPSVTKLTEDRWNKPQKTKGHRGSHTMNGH
UniProt P69721: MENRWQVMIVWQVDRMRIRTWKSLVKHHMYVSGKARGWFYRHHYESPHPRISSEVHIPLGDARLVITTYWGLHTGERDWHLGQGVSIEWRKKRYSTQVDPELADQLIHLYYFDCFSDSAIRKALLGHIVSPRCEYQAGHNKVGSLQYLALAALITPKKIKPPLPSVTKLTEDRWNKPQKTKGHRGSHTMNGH
UniProt P69722: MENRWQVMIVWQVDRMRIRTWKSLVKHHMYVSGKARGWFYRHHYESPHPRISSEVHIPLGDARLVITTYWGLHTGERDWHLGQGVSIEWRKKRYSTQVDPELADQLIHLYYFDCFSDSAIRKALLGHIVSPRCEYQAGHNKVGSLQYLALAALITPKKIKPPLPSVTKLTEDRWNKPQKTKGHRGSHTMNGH
UniProt P69723: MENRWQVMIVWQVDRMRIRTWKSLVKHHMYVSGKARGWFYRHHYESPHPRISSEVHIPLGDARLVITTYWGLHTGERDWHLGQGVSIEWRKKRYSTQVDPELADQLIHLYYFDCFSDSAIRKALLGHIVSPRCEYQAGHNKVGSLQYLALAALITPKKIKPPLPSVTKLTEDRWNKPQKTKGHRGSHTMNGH
UniProt Q9HC16: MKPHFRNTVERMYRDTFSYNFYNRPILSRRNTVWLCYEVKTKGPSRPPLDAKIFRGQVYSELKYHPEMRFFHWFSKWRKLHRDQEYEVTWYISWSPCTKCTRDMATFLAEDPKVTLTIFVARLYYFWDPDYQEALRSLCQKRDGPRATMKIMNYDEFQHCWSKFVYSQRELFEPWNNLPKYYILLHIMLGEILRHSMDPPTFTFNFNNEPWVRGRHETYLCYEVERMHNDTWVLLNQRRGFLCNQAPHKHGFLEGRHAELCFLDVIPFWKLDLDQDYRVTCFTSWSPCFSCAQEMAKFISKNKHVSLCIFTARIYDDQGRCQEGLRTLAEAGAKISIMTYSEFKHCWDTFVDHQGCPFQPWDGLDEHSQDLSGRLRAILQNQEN

Each compound was assayed against Virion infectivity factor (Human immunodeficiency virus type 1 group M subtype B (isolate BH10)) + Virion infectivity factor (Human immunodeficiency virus type 1 group M subtype B (isolate BRU/LAI)) + Virion infectivity factor (Human immunodeficiency virus type 1 group M subtype B (isolate PCV12)) + Virion infectivity factor (Human immunodeficiency virus type 1 group M subtype B (isolate HXB2)) + DNA dC->dU-editing enzyme APOBEC-3G (Homo sapiens) (UniProt P69720+P69721+P69722+P69723+Q9HC16) (assay: inhibitors of Vif binding to APOBEC3G peptide, primary screen, biochemical, TR-FRET, GST-Vif 1-94, biotin-A3G peptide, dose response retest (AID 1117319;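 note: Vif residues 1-94 fused to GST binding biotinylated APOBEC3G peptide 110-148; 0% = full assay without inhibitor and 100% = GST in place of GST-Vif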)). Details: active compounds read high.

SMILES | inhibition
COCCNC(=O)Cn1cnc2sc(C)c(S(=O)(=O)N3CCC(C)CC3)c2c1=O | inconclusive: 48.3%
CCn1c(C)c2c(C)nnc(C)c2c1C | inconclusive: 34.8%
CC1CC(=O)Nc2cc([N+](=O)[O-])ccc2N1 (centres undefined) | inconclusive: 45.8%
CC(C)c1c(O)nc(SCC(=O)N2CCOCC2)[nH]c1=O | inconclusive: 49.1%
COc1cc([N+](=O)[O-])cc(/C=N/NC(=O)c2cccnc2)c1O | inconclusive: 39%
Cc1cccc(NC(=S)NCc2ccccn2)c1 | inconclusive: 41.6%
COc1cccc(C(=O)Oc2cccc(N3C(=O)C4C5CC(C(Br)C5Br)C4C3=O)c2)c1 (centres undefined) | inconclusive: 33.2%
Cn1cccc1/C=C1\SC(=S)N(NC(=O)c2ccccc2O)C1=O | inactive: 27.8%
O=[N+]([O-])c1ccc(C2CNC(c3ccccc3)O2)cc1 (centres undefined) | inconclusive: 49.2%
Cc1ccc2nc(-c3ccc(NC(=O)CNC4CC4)cc3)sc2c1 | inconclusive: 57.2%
Cc1ccc(S(=O)(=O)CCC(=O)NCCc2ccccc2)cc1 | inactive: 1.3%
COCCCn1c(SCC(N)=O)nnc1-c1ccccc1 | inactive: 2.76%
CCOC(=O)N1CCN(S(=O)(=O)c2ccc(OC)c(Cl)c2Cl)CC1 | inactive: 3.84%
O=C(NCCc1ccccc1)c1c(F)c(F)c(F)c(F)c1F | inconclusive: 43.2%
COc1cccc(CNC(=O)C23CN(Cc4ccccc4)CC2C(c2ccc([N+](=O)[O-])cc2)=NO3)c1 (centres undefined) | inconclusive: 40.2%
COC(=O)c1ccccc1NC(=O)c1c(O)c2c([nH]c1=O)CCCC2 | inconclusive: 36.2%
CCN(CC)c1nc2n(c(=O)n1)CCO2 | inconclusive: 56.4%
O=C(NC1CCCCC1)N(Cc1cc2cc3c(cc2[nH]c1=O)OCCO3)CC1CCCO1 (centres undefined) | inconclusive: 35%
CC(C)C(=O)N=c1sc2cccc(F)c2n1C | inconclusive: 34.9%
Clc1ccccc1CN1CCN(c2ncccn2)CC1 | inactive: -5.95%
CCC(=O)NCc1c(Cl)cccc1-n1cccc1 | inactive: -0.31%
CC(C)Cn1c(N)c(C(=O)COC(=O)c2cc(-c3ccco3)nc3ccccc23)c(=O)n(C)c1=O | inconclusive: 41.8%

A draw from above in order of number of heavy atoms, low to high:
SMILES | inhibition
CC(C)C(=O)N=c1sc2cccc(F)c2n1C | inconclusive: 34.9%
O=[N+]([O-])c1ccc(C2CNC(c3ccccc3)O2)cc1 (centres undefined) | inconclusive: 49.2%
Cc1ccc2nc(-c3ccc(NC(=O)CNC4CC4)cc3)sc2c1 | inconclusive: 57.2%

Remaining list, next part.

SMILES | inhibition
CCOc1cc(N2CCOCC2)c(OCC)cc1NC(=O)CSc1cccc[n+]1[O-] | inconclusive: 62%
Cc1nc(SCC(O)CCl)c([N+](=O)[O-])[nH]1 (centres undefined) | inconclusive: 41.9%
COc1cc2c(cc1OC)/C(=C/c1ccc(Br)cc1)C(=O)OC2 | inconclusive: 35.8%
Cc1[nH]n(-c2ccccc2)c(=O)c1N=Nc1cccc([N+](=O)[O-])c1 | inconclusive: 59.8%
COC(=O)/C(N=Nc1cccc(C(F)(F)F)c1)=C(\C)O | inconclusive: 34.6%
CC(=O)C1C(c2ccc3ncccc3c2)NC(=O)NC1(O)C(F)(F)F (centres undefined) | inconclusive: 46.2%
COc1ccc(CN(C(=O)c2snc(C(N)=O)c2N)C(C(=O)NC(C)(C)C)c2ccco2)cc1 (centres undefined) | inconclusive: 37.6%
O=c1c2[nH]c3cccc(Cl)c3c2ncn1CCN1CCCCC1 | inconclusive: 36.3%
CC(=O)NC(c1ccc(C)cc1)c1cc([N+](=O)[O-])c2cccnc2c1O (centres undefined) | inconclusive: 44.8%
CC(C)C[C@H](NC(=O)N1CCN(c2ccccc2)CC1)C(=O)O | inconclusive: 42.7%
CCCN1C2=NCCN2c2ccccc21 | inconclusive: 37.1%
CN(C)CCOC(=O)NC12CC3CC(CC(C3)C1)C2 | inconclusive: 50.8%
C=CCOC(=O)C(C#N)c1nc2ccccc2nc1N1CCN(Cc2ccccc2)CC1 (centres undefined) | inconclusive: 56.9%
Cc1cc(NS(=O)(=O)c2ccc(NC(=O)CCCC(=O)O)cc2)nc(C)n1 | inconclusive: 34%
O=C(N/N=C/c1c[nH]c2ccccc12)c1ccc([N+](=O)[O-])cc1Cl | inactive: 2.78%
Clc1ccccc1Cn1nnc2c(N3CCCC3)ncnc21 | inconclusive: 62.1%
COc1cc2[nH]c(=S)nc(NCc3ccc(C)cc3)c2cc1OC | inactive: -6.65%
COc1cc(C(=O)NC(=S)NNC(=O)[C@H]2C[C@@H]2c2ccccc2)cc(OC)c1OC | inconclusive: 43.4%
Cc1ccccc1N(C(=O)Cc1cccs1)C(C(=O)NCC1CCCO1)c1cccnc1 (centres undefined) | inconclusive: 39.4%
CC(C)c1ccc(C(C(=O)NC2CCCC2)N(C(=O)c2csnn2)C2CC2)cc1 (centres undefined) | inconclusive: 42.5%
O=C1C=CC(O)(c2cc(=O)c3c(O)cc(O)cc3o2)C=C1 | inconclusive: 43.7%
O=c1c2ccccc2nc2ccc(NCc3ccco3)nn12 | inconclusive: 47.8%
